Literature values in patent publication US9295653B2, “Controlled agglomeration” (Veloxis Pharmaceuticals A/S, priority 2001, dated 2016).

Conditions: in vivo

COC(=O)C1=C(C)NC(C)=C(C(=O)OC)C1c1ccccc1[N+](=O)[O-] [Nifedipine]
absorption after oral administration: rapidly and fully absorbed
